Data on two substances can be found in paper doi:10.1101/2025.11.24.690135.

Chains of the proteins cited; added tags and fusions are not shown. Residues count along the entry.
UniProt P18848: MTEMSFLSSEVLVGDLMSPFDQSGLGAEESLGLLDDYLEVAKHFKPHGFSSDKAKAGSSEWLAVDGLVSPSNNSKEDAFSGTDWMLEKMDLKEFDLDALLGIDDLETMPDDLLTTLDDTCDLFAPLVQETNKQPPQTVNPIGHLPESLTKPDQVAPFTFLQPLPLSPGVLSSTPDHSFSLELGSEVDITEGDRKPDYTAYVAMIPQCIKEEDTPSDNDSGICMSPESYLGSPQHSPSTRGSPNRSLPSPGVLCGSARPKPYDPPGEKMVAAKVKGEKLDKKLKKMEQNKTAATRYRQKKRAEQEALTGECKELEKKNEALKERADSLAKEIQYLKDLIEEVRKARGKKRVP
UniProt P14625, residues 22-803: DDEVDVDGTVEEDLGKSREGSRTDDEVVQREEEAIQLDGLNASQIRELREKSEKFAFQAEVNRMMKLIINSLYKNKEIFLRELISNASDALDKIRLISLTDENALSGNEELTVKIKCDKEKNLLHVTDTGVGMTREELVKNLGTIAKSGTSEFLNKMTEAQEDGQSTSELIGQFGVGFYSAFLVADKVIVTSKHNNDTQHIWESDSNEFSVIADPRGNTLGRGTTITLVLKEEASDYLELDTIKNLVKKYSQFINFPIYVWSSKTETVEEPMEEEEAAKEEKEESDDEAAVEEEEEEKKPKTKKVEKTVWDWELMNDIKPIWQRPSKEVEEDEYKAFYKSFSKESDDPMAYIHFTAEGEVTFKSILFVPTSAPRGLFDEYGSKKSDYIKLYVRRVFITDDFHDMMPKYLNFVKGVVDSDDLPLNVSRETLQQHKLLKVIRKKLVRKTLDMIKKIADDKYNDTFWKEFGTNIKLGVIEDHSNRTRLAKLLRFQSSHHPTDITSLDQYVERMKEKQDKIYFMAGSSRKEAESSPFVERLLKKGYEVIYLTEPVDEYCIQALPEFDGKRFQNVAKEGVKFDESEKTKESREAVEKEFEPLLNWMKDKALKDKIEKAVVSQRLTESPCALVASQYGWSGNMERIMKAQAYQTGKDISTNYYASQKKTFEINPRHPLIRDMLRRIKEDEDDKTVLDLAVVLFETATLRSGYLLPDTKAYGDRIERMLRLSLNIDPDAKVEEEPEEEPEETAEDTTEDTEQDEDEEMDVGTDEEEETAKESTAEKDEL
UniProt P51149: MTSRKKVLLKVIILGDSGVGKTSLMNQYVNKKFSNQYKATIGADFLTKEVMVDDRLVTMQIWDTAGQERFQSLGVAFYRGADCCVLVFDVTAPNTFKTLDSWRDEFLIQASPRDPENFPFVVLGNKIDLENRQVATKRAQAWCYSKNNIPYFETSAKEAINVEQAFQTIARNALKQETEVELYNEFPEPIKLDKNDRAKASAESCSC

No constants are given. Whether binding was seen depends on the method and setting. In cells and extracts the contact can be indirect. These calls come from enrichment with a bait or labelling near it, and not all partners need be listed.

The target in this assay is activating transcription factor 4, endogenous (human (endogenous in iPSC-RPE)) (UniProt P18848). The experiment in a line: affinity purification with mass spectrometry.

With “HSP90B1, endogenous (from UniProt P14625 22-803)”, the binding result is “binds”.

With “RAB7A, endogenous (from UniProt P51149 1-207)”, the binding result was “binds”.
